Laboratory results reported in patent publication EP0527889B1, “QUINOLIZINONE TYPE COMPOUNDS” (priority 1990, dated 1991).
Where a name gives a salt, the structure may show the parent alone.

What was measured:
[1] = system: Staphylococcus aureus NCTC 10649; assay: In vivo antibacterial activity in mice (protection from lethal intraperitoneal infection); conditions: 144 h
Method: (§1) The in vivo antibacterial activity of the compounds of the present invention was determined as follows: Aqueous solutions of the test compounds were prepared by dissolving the compound in distilled water, except for the compounds of examples 169 and 170 which were dissolved in a solution of 2% DMSO in distilled water.
(§2) After 18 hr incubation, a culture of Staphylococcus aureus NCTC 10649 was serially diluted by using 10-fold dilutions in 5% (w/v) hog gastric mucin. Cultures (0.5 mL) in a dilution from 10^-1 to 10^-8 were injected intraperitoneally into CF-1 female mice weighing approximately 20g. The LD50 (median lethal dose) for the test organism was calculated from the cumulative mortalities on the sixth day by the using the Reed and Muench procedure (Reed, L.J., and H. Muench, Amer. J. Hygiene, 27, 493 (1938)).
The above 18 hr culture was diluted in 5% (w/v) hog gastric mucin to obtain 100 times the LD50, and 0.5 mL was injected intraperitoneally into mice. The mice were treated subcutaneously (sc) or orally (po) with a specific amount of the test compound divided equally to be administered at 1 and 5 hr after infection. A group of 10 animals each for at least three dose levels was thus treated, and the deaths were recorded daily for 6 days. Ten mice were left untreated as infection control. […]

Escherichia coli JUHL = assay: as above; conditions: 144 h
Method: as §1, §2
The above 18 hr culture was diluted in 5% (w/v) hog gastric mucin to obtain 100 times the LD50, and 0.5 mL was injected intraperitoneally into mice. […]
The LD50 for Escherichia coli JUHL was determined in a manner similar to that above for S. aureus. The 18 hr cultures of this organism were also prepared for po and sc testing in mice, from which ED50 values were calculated. Positive controls were run with temafloxacin as the test compound, for which ED50 values were also calculated.

`NC1CCN(c2nc3c(-c4ccc(F)cc4F)cc(C(=O)O)c(=O)n3cc2F)C1` (stereo not shown) [Example 162, 2-(3-Aminopyrrolidin-1-yl)-9-(2,4-difluorophenyl)-3-fluoro-6H-6-oxopyrido[1,2-a]pyrimidine-7-carboxylic acid trifluoroacetic acid salt] was tested. Which ED50 ([1]; NCTC10649, po) did it give?
The ED50 was 12 mg/kg.

And the ED50 ([1]; NCTC10649, sc)?
Its ED50 is 4.4 mg/kg.

What about the ED50 (Escherichia coli JUHL; po) of the same molecule?
The ED50 was 5.6 mg/kg.

And the ED50 (Escherichia coli JUHL; sc)?
The ED50 was 1 mg/kg.
